Results deposited as PubChem BioAssay AID1259425 (University of Nebraska Medical Center, 2018).

Purpose: 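Seek colon cancer weak points whose silencing resembles KSR1 loss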 (primary screen)
System: HCT116 human colon cancer cells
Reagents: siRNA pool against human genes, 50 nM siRNA
Read-out: 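mRNA of six signature genes measured together by branched-DNA assay after 50 nM siRNA pool, blank removed, divided by geometric mean of two housekeeping genes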
Reading the numbers: BNIP3L mRNA: higher = more BNIP3L transcript after knockdown; NDRG1 mRNA: higher = more NDRG1 transcript after knockdown; BNIP3 mRNA: higher = more BNIP3 transcript after knockdown
The whole screen tested about 14,000 reagents; shown is an unselected part. Further read-outs or replicates are left out here. Not stated in the record: the time to read-out.

target	BNIP3L mRNA, set 1	NDRG1 mRNA, set 1	BNIP3 mRNA, set 1
SERPINB6 (GeneID 5269)	0.0886	0.327	0.29
PF4 (GeneID 5196)	0.0727	0.509	0.215
GIGYF1 (GeneID 64599)	0.0974	0.351	0.287
ANAPC1 (GeneID 64682)	0.091	0.132	0.257
SLC12A1 (GeneID 6557)	0.136	0.217	0.393
SRD5A1 (GeneID 6715)	0.0941	0.147	0.243
PRPF8 (GeneID 10594)	0.0671	0.163	0.268
PIEZO2 (GeneID 63895)	0.0716	0.159	0.212
SLC39A10 (GeneID 57181)	0.131	0.141	0.295
AOAH (GeneID 313)	0.165	0.111	0.543
SULF2 (GeneID 55959)	0.163	0.117	0.25
RHOB (GeneID 388)	0.0878	0.126	0.241
COPG2 (GeneID 26958)	0.051	0.113	0.25
DLG3 (GeneID 1741)	0.0727	0.231	0.48
CDC42EP1 (GeneID 11135)	0.139	0.45	0.333
PAFAH1B3 (GeneID 5050)	0.0794	0.33	0.249
SELENOK (GeneID 58515)	0.0811	0.13	0.24
GIPC2 (GeneID 54810)	0.0895	0.178	0.427
GEM (GeneID 2669)	0.195	0.153	0.391
NDUFA5 (GeneID 4698)	0.108	0.229	0.305
PFAS (GeneID 5198)	0.0841	0.4	0.543
AURKB (GeneID 9212)	0.243	0.175	0.458
AKIRIN2 (GeneID 55122)	0.121	0.0724	0.294
E2F5 (GeneID 1875)	0.0705	0.108	0.335
FLJ21369 (retired record) (GeneID 79860)	0.111	0.299	0.342
SNAP23 (GeneID 8773)	0.301	1.56	0.448
PSME2 (GeneID 5721)	0.0696	0.237	0.286
MLYCD (GeneID 23417)	0.0573	0.216	0.245
GNMT (GeneID 27232)	0.126	0.179	0.356

9 entries from above, showing only “NDRG1 mRNA, set 1”.
CDC42EP1 (GeneID 11135)	0.45
PAFAH1B3 (GeneID 5050)	0.33
SELENOK (GeneID 58515)	0.13
GIPC2 (GeneID 54810)	0.178
GEM (GeneID 2669)	0.153
NDUFA5 (GeneID 4698)	0.229
PFAS (GeneID 5198)	0.4
AURKB (GeneID 9212)	0.175
AKIRIN2 (GeneID 55122)	0.0724

Additional records:
target	BNIP3L mRNA, set 1	NDRG1 mRNA, set 1	BNIP3 mRNA, set 1
GAS6 (GeneID 2621)	0.159	1.6	0.372
MGRN1 (GeneID 23295)	0.0856	0.138	0.308
USP14 (GeneID 9097)	0.106	0.128	0.113
IL37 (GeneID 27178)	0.0817	0.319	0.218
PTK2B (GeneID 2185)	0.232	0.263	0.442
ANKRD26 (GeneID 22852)	0.152	0.0953	0.233
ZNF510 (GeneID 22869)	0.11	0.088	0.249
ZBTB5 (GeneID 9925)	0.0593	0.33	0.345
CRIPT (GeneID 9419)	0.0957	0.124	0.269
TESPA1 (GeneID 9840)	0.104	0.139	0.224
MTMR14 (GeneID 64419)	0.0741	0.184	0.226
FMO1 (GeneID 2326)	0.0866	0.124	0.236
LIN7B (GeneID 64130)	0.0433	0.385	0.234
NCAPG (GeneID 64151)	0.11	0.124	0.344
ATP13A1 (GeneID 57130)	0.119	0.333	0.307
ENTPD6 (GeneID 955)	0.0472	0.0684	0.227
RGR (GeneID 5995)	0.367	0.876	0.79
CCDC86 (GeneID 79080)	0.088	0.253	0.405
SEC22C (GeneID 9117)	0.159	0.169	0.319
SSBP3 (GeneID 23648)	0.15	0.384	0.59
MAFK (GeneID 7975)	0.0838	0.0761	0.279
GFM2 (GeneID 84340)	0.113	0.124	0.183
TTLL4 (GeneID 9654)	0.117	0.384	0.237
MEFV (GeneID 4210)	0.128	0.117	0.258
TSPEAR (GeneID 54084)	2.09	4	3.15
OCRL (GeneID 4952)	0.0726	0.199	0.196
TRIM2 (GeneID 23321)	0.0895	0.445	0.384
PGAP1 (GeneID 80055)	0.0786	0.206	0.363
TADA3 (GeneID 10474)	0.13	0.186	0.128
MCAT (GeneID 27349)	0.244	0.408	0.379
TBCCD1 (GeneID 55171)	0.115	0.665	0.251
CORO1A (GeneID 11151)	0.205	0.243	0.397
RBPMS (GeneID 11030)	0.154	0.245	0.251
HM13 (GeneID 81502)	0.0743	0.0513	0.206
